PubChem BioAssay AID1224826 | NIAID | 2016
Here is one part, drawn at random, of about 17,000 reagents. In the full data, about 1,110 (6.6%) were called active. 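Active means lowered or raised reporter signal; replicate intensities are raw and not normalised per plate.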 Unmarked entries are inactive.

- Screen: 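Knock-downs that raise or lower Tnf reporter signal after endotoxin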 (primary screen)
- Cell system: RAW264.7 G9 macrophages from mouse bearing reporters for p65 (GFP) and the Tnf promoter (mCherry)
- Knock-down reagent: siRNA pool against mouse genes, 100 nM
- Time to read-out: 16 h of LPS stimulation, after 2 days of siRNA transfection
- Treatment: bacterial lipopolysaccharide (Salmonella minnesota R595), 10 ng/ml
- Read-out: 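Nuclear mCherry signal of the Tnf promoter reporter measured by imaging after background removal, scaled to each plate median and turned into robust z-scores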
- Scale: Tnf reporter robust z-score: higher = stronger Tnf promoter reporter signal after LPS; Tnf reporter intensity: higher = stronger Tnf promoter reporter signal
- Hit rule: 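a well counts as active at a score of -1.3 or below (Tlr4 knock-down control median) or above 3 (raised signal); controls and wells holding fewer than 50 cells are excluded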
- Meaning of the calls: active = Tnf reporter clearly lowered or raised; inactive = no clear change in Tnf reporter

| gene | Tnf reporter robust z-score | fewer than 50 cells in well | Tnf reporter intensity, replicate 1 | Tnf reporter intensity, replicate 2 |
| --- | --- | --- | --- | --- |
| Amigo1 | -0.93 | enough cells in well | 86.8 | 181 |
| Setd7 | -0.76 | enough cells in well | 235 | 137 |
| Aspn | -0.59 | enough cells in well | 153 | 116 |
| Styk1 | 1.58 | enough cells in well | 332 | 215 |
| Cyp4a12b | 0.16 | enough cells in well | 207 | 174 |
| Git2 | -0.3 | enough cells in well | 210 | 235 |
| Gabra6 | 0.03 | enough cells in well | 264 | 234 |
| Ern2 | 0.38 | enough cells in well | 239 | 181 |
| Nudt19 | – | fewer than 50 cells per well; well left out of calls | 121 | 98 |
| Oat | 0.68 | enough cells in well | 341 | 189 |
| Dnajb12 | 3.19 (active) | enough cells in well | 341 | 269 |
| Ndufs5-ps | 0.54 | enough cells in well | 294 | 257 |
| Uckl1 | -1.01 | enough cells in well | 119 | 87.2 |
| Card11 | 0.03 | enough cells in well | 138 | 217 |
| Cab39l | – | fewer than 50 cells per well; well left out of calls | 205 | 62.5 |
| Ptpre | -0.05 | enough cells in well | 326 | 187 |
| Gnaq | -0.1 | enough cells in well | 194 | 310 |
| Or4c125 | -0.38 | enough cells in well | 177 | 120 |
| Btaf1 | -0.37 | enough cells in well | 213 | 188 |
| Smarcc2 | 0.4 | enough cells in well | 147 | 215 |
| Vdac2 | -0.75 | enough cells in well | 91.8 | 64.1 |
| Sesn2 | – | fewer than 50 cells per well; well left out of calls | 68 | 67.2 |
| Pigk | -0.55 | enough cells in well | 139 | 90.1 |
| Catsper2 | -0.9 | enough cells in well | 172 | 144 |
| Tbcel | -0.51 | enough cells in well | 159 | 92.5 |
| Adam1a | 3.28 (active) | enough cells in well | 527 | 306 |
| Rcbtb2 | 0.23 | enough cells in well | 265 | 224 |
| Hdac3 | -0.8 | enough cells in well | 172 | 139 |
| Usp36 | -0.13 | enough cells in well | 148 | 154 |
| Zfp236 | -1.08 | enough cells in well | 90.8 | 65.8 |
| Ctrl | 0.12 | enough cells in well | 244 | 212 |
| Sqstm1 | – | fewer than 50 cells per well; well left out of calls | 211 | 97.3 |
| Or51d1 | 0.71 | enough cells in well | 76.7 | 146 |
| Adam2 | -0.72 | enough cells in well | 95.4 | 129 |
| Ndufa12 | – | fewer than 50 cells per well; well left out of calls | 252 | 49.3 |
| Nrxn1 | -1.2 | enough cells in well | 137 | 69.4 |
| Mbip | -0.86 | enough cells in well | 151 | 103 |
| Slc6a1 | 0.54 | enough cells in well | 119 | 90.9 |
| Zrsr2 | – | fewer than 50 cells per well; well left out of calls | 51.4 | 22.1 |
| B4galnt3 | -0.89 | enough cells in well | 157 | 119 |
| Serpind1 | -0.67 | enough cells in well | 227 | 157 |
| Znrf4 | – | fewer than 50 cells per well; well left out of calls | 59 | 29 |
| Svbp | 0.2 | enough cells in well | 237 | 84.1 |
| Sprr2k | -0.48 | enough cells in well | 116 | 53.3 |
| Rnps1 | -1.31 (active) | enough cells in well | 75.9 | 67.2 |
| Ahr | 0.57 | enough cells in well | 194 | 210 |
| Zfp36l2 | -1.34 (active) | enough cells in well | 80.2 | 54.8 |
| Hoxc12 | -0.12 | enough cells in well | 226 | 164 |

A few values from the list.
Serpind1, fewer than 50 cells in well = enough cells in well
For “Tnf reporter intensity, replicate 1”, Uckl1 is entered as 119
For “Tnf reporter robust z-score”, Ern2 is entered as 0.38
Styk1, Tnf reporter intensity, replicate 1 = 332
Under “Tnf reporter robust z-score”, Svbp reads 0.2
Entry of Nrxn1 in “Tnf reporter robust z-score”: -1.2

Additional entries follow.
| gene | Tnf reporter robust z-score | fewer than 50 cells in well | Tnf reporter intensity, replicate 1 | Tnf reporter intensity, replicate 2 |
| --- | --- | --- | --- | --- |
| Inka2 | 4.28 (active) | enough cells in well | 448 | 453 |
| Fv1 | -0.64 | enough cells in well | 201 | 103 |
| C1qtnf7 | 0.3 | enough cells in well | 113 | 196 |
| Omd | 0.96 | enough cells in well | 165 | 204 |
| Sox13 | -0.16 | enough cells in well | 101 | 88.4 |
| Dpp8 | -1.15 | enough cells in well | 97.3 | 81.9 |
| Usp17la | 2.37 | enough cells in well | 303 | 229 |
| Slitrk6 | -1.42 (active) | enough cells in well | 70 | 46.1 |
| Or2k2 | -0.65 | enough cells in well | 138 | 96.4 |
| Dld | -0.12 | enough cells in well | 237 | 183 |
| Alg11 | -0.47 | enough cells in well | 199 | 133 |
| Rmdn2 | -1.22 | enough cells in well | 110 | 88.5 |
| Ctsll3 | 0.21 | enough cells in well | 143 | 76.3 |
| Zfp866 | 0.22 | enough cells in well | 254 | 132 |
| Jag2 | 1.66 | enough cells in well | 353 | 250 |
| Senp8 | -0.54 | enough cells in well | 76.1 | 90.1 |
| V1rd19 | 5.46 (active) | enough cells in well | 272 | 307 |
| Mstn | -0.82 | enough cells in well | 187 | 169 |
| Ntmt1 | 1.03 | enough cells in well | 221 | 96.3 |
| Adamtsl5 | -0.47 | enough cells in well | 85.3 | 90.3 |
| Or1l4 | -0.25 | enough cells in well | 175 | 104 |
| Rab40b | 0.54 | enough cells in well | 337 | 261 |
| Zmym2 | 0.35 | enough cells in well | 242 | 275 |
| Arhgap44 | -0.4 | enough cells in well | 150 | 141 |
| Ankmy2 | -0.66 | enough cells in well | 162 | 144 |
| Srp19 | 0.32 | enough cells in well | 107 | 114 |
| Pnrc2 | 0.98 | enough cells in well | 320 | 261 |
